In all, about 340,000 compounds went through this assay and about 170 (0.05%) were called active. This list was built around the results that the source calls inconclusive (neither active nor inactive); the mix of calls is not that of the screen. The call rests on the fitted dose curve; in most records, active means well fitted inhibition curve with a large enough effect in the signal ratio, with a control signal flat (not every such curve was filed as active); inconclusive means small, poorly fitted or top-dose-only effect, or effect the other way, or a change in a side signal; inactive means flat fitted curve, though single readings scatter; the % refers to the signal ratio. Potencies of inconclusive entries are doubtful fits and often do not repeat.
experiment: qHTS Assay to Find Inhibitors of Chronic Active B-Cell Receptor Signaling; conditions: ABC-DLBCL IkBa-CBG/CBR reporter, luminescence ratio (green luciferase fused to IkBa over red control in TMD8 lymphoma cells), 4 h; activity change, negative = inhibition: at 46.1 µM (top of the series);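 on activity change, negative = inhibition: plate controls were basal doxycycline-induced cells for no effect and cells given 10 µM MG132 for full effect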
Method in brief: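 TMD8 ABC-DLBCL cells carrying doxycycline-inducible green luciferase fused to IkappaBalpha plus unfused red luciferase were exposed to compounds (up to 46 uM) for 4 hrs at 37C. Activity came from the overlap-corrected green/red luminescence ratio.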
Potency means the concentration at half of the fitted maximal effect.

Compound	activity change, negative = inhibition	Potency
COc1ccc(-n2cnc3cc(NCc4ccco4)ccc32)cc1	inconclusive: 16.6%	–
CCOC(=O)Cc1csc(NC(=O)CSc2ncnc3c2cnn3-c2ccccc2Cl)n1	inconclusive: -14.7%	–
CNCc1c(OCc2ccc(F)cc2)ccc2ccccc12	inconclusive: -22.9%	–
COc1ccc(Cl)cc1NC(=O)C1CCN(C(=O)C2CC(=O)N(c3ccc(C)cc3)C2)CC1 (configuration not stated)	inactive	–
CCN(CC)Cc1ccccc1Sc1ccccc1	inconclusive: 6.62%	–
O=C(Nc1ccon1)c1cccc(C(F)(F)F)c1	inconclusive: 6.67%	–
CC(=O)c1sc(NC(=O)c2ccccc2F)nc1-c1ccccc1	inconclusive: 4.27%	–
CCOCCCn1c(SCC(=O)N(C)C2CCS(=O)(=O)C2)nc2ccccc2c1=O (configuration not stated)	inconclusive: 0.207%	–
O=C(C1=C[C@H](c2ccc(C(F)(F)F)cc2)C[C@H](OCc2ccc(CO)cc2)O1)N1CCOCC1	–	inconclusive: 1.78 µM [falling, partial curve, poor fit]
CCOC(=O)c1ccc(NC(=O)N2CCc3ccccc3C2)cc1	–	inconclusive: 7.08 µM [falling, partial curve]
CC(C)C[C@H](CO)N(Cc1ccccc1)S(=O)(=O)N(Cc1ccccc1)[C@@H](CO)CC(C)C	inconclusive: 4.37%	–
Cc1onc(-c2ccccc2Cl)c1C(=O)OCC(=O)c1ccccc1	inconclusive: 8.62%	–
CCN1CCN(c2nc3ccccc3nc2NS(=O)(=O)c2ccc(NC(C)=O)cc2)CC1	inactive	–
COC(=O)c1cc(C(=O)Nc2nnc(CC(C)(C)C)s2)cc([N+](=O)[O-])c1	inactive	–
O=c1cc(-c2ccncc2)oc2ccccc12	inconclusive: -2.22%	–
O=C(O)c1cccc(N/N=C/C2=C(Cl)c3cc(Cl)ccc3SC2)c1	–	inconclusive: 35.5 µM [falling, single point]
CCOc1ccccc1N(C)C(=O)CCS(=O)(=O)c1ccc2c(c1)NC(=O)CO2	inactive	–
COc1ccc(C(=O)/C=C/c2ccc(OC)cc2OC)c(O)c1	–	inconclusive: 11.2 µM [falling, single point]
O=C(Nc1ccc(F)cc1)Nc1cc(OCC(F)(F)F)cc(OCC(F)(F)F)c1	inconclusive: 16.1%	–
O=C(NCc1ccco1)c1ccc2c(c1)N(Cc1ccc(Cl)cc1)C(=O)c1ccccc1S2	inconclusive: -0.76%	–
O=C(Nc1sc2c(c1C(=O)O)CCCC2)c1ccc(Cl)cc1	inconclusive: 384%	–
COc1cc2c(-c3ccc4[nH]ccc4c3)c(-c3ccc(C#N)cc3)oc(=O)c2cc1OC	–	inconclusive: 6.51 µM [falling, partial curve, poor fit]
Nc1cccc2c1C(=O)N(C(=O)c1ccco1)C2=O	inconclusive: -0.897%	–
COc1ccccc1OCc1nc(C#N)c(NCCCn2ccnc2)o1	inactive	–
O=C(/C=C/Nc1ccc(F)cc1)c1ccc(Br)cc1	–	inconclusive: 10 µM [falling, partial curve]
CCOC(=O)c1cnc(SCc2nc(N)nc(Nc3ccc(F)cc3)n2)nc1N	inconclusive: -1.47%	–

Compound	activity change, negative = inhibition	Potency
O=C(CSc1ccccc1)Nc1ccc(N2CCOCC2)c(F)c1	inactive	–
CC(C)(C)CC(=O)NC(=S)NCCc1ccccc1	inconclusive: 13.9%	–
COc1ccc(-n2c(N3CCN(C)CC3)nc3sc4c(c3c2=O)CCCCC4)cc1	inactive	–
Cc1ccc(C)c(Cn2c(C(=O)OC(C)C)cc3c2ccn3C)c1	inconclusive: 20.4%	–
CC(C)c1nc(-c2ccccc2)c(-c2ccccc2)[nH]1	inconclusive: 8.4%	–
CN(C)c1cccc(C(=O)NNC(=S)NC2CCCC2)c1	–	inconclusive: 22.4 µM [falling, partial curve]
CN(C)S(=O)(=O)c1cccc(NC(=S)N/N=C/C(c2ccccc2)c2ccccc2)c1	inconclusive: -12.3%	–
COc1ccc(-c2sc3ccc(OC)cc3c2-c2ccc(OCCN3CCOCC3)cc2)cc1	inactive	–
CCOc1ccc(/C=C/[N+](=O)[O-])c2ccccc12	inconclusive: -0.365%	–
CSc1ccc(S(=O)(=O)NC2CC3CCC2C3)cc1 (configuration not stated)	inconclusive: -1.79%	–
CCN(Cc1ccccc1)C(=O)C1CCN(Cc2ccc(OC)c(OC)c2OC)CC1	inconclusive: 1.29%	–
COc1cc(-c2nnc(SCc3cc(=O)oc4cc(O)c(O)cc34)o2)cc(OC)c1OC	inactive	–
Cc1ccc(CSc2nc3ccccc3c(=O)n2Cc2ccco2)cc1	–	inconclusive: 18.4 µM [rising, partial curve, poor fit]
O=C(c1ccco1)n1nc(-c2cccnc2)nc1NCc1ccco1	inactive	–
COCCNC(=O)CSc1nc2cc(OC)c(OC)cc2c(=O)n1Cc1ccc(OC)cc1	inactive	–
CC1CN(c2nc(-c3ccc(Br)cc3)nnc2-c2ccccc2)CC(C)N1 (configuration not stated)	–	inconclusive: 15.8 µM [falling, partial curve]
Fc1c(F)c(F)c(/C=N/NC(=S)Nc2cccnc2)c(F)c1F	–	inconclusive: 35.5 µM [cytotoxic, single point]
CC(C)(C)OC(=O)C[C@@H]1C/C=C\C[C@@H](CC(=O)N(CCO)Cc2ccccc2)C(=O)N2CCC[C@@H]2COC1=O	inactive	–
Cc1noc(/C=C/c2ccco2)c1S(=O)(=O)N1CCC(C(=O)NC(C)c2ccccc2)CC1 (configuration not stated)	inactive	–
Cc1nc2scc(C)n2c(=O)c1S(=O)(=O)NCCc1ccccc1	inactive	–
CCC(C)NC(=O)c1cn(CCOC)c(=O)c2c1c1ccccc1n2C (configuration not stated)	inconclusive: 1.29%	–
O=C(Cn1nc(C(=O)O)c2ccccc2c1=O)Nc1ccc(Cl)c(S(=O)(=O)N2CCOCC2)c1	–	inconclusive: 16.4 µM [falling, partial curve, poor fit]
Cc1ccc(S(=O)(=O)N(Cc2ccccc2F)C(=O)N2CCN(C)CC2)cc1	inactive	–
CC(C)C(=O)N1CCC2(CC1)Oc1ccc(Cl)cc1C(=O)C21CC(c2ccccc2)=NO1 (configuration not stated)	inconclusive: -8.53%	–
CCOC(=O)[C@@H]1CCN(Cc2ccccc2)C[C@H]1c1ccccc1	inactive	–
CCCC(=O)Nc1ccc2c(c1)nc(CN1CCCC1)n2C	inactive	–

Reformatted: results already given
Compound,"activity change, negative = inhibition",Potency
CSc1ccc(S(=O)(=O)NC2CC3CCC2C3)cc1 (configuration not stated),inconclusive: -1.79%,–
CCN(Cc1ccccc1)C(=O)C1CCN(Cc2ccc(OC)c(OC)c2OC)CC1,inconclusive: 1.29%,–
COc1cc(-c2nnc(SCc3cc(=O)oc4cc(O)c(O)cc34)o2)cc(OC)c1OC,inactive,–
Cc1ccc(CSc2nc3ccccc3c(=O)n2Cc2ccco2)cc1,–,"inconclusive: 18.4 µM [rising, partial curve, poor fit]"
O=C(c1ccco1)n1nc(-c2cccnc2)nc1NCc1ccco1,inactive,–
COCCNC(=O)CSc1nc2cc(OC)c(OC)cc2c(=O)n1Cc1ccc(OC)cc1,inactive,–
CC1CN(c2nc(-c3ccc(Br)cc3)nnc2-c2ccccc2)CC(C)N1 (configuration not stated),–,"inconclusive: 15.8 µM [falling, partial curve]"
Fc1c(F)c(F)c(/C=N/NC(=S)Nc2cccnc2)c(F)c1F,–,"inconclusive: 35.5 µM [cytotoxic, single point]"
CC(C)(C)OC(=O)C[C@@H]1C/C=C\C[C@@H](CC(=O)N(CCO)Cc2ccccc2)C(=O)N2CCC[C@@H]2COC1=O,inactive,–
Cc1noc(/C=C/c2ccco2)c1S(=O)(=O)N1CCC(C(=O)NC(C)c2ccccc2)CC1 (configuration not stated),inactive,–
Cc1nc2scc(C)n2c(=O)c1S(=O)(=O)NCCc1ccccc1,inactive,–
